# Results deposited as PubChem BioAssay AID1259299 (Sanger Institute, 2017).
# Test: 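Essential genes and drug-synergistic partners among kinases and colorectal mutation genes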 (primary screen)
# Cells: human CAR1 colorectal cancer cells
# Reagents: siRNA pool against human genes
# Conditions: anchor drug BYL719 1 µM, cetuximab 5 µg/ml or trametinib 10 nM, or DMSO vehicle alone; exposure length not given
# Measured: 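Mean replicate viability versus non-targeting controls, turned into robust z-scores, plus drug synergy scores for BYL719, cetuximab and trametinib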
# Reading the numbers: viability robust z-score, knock-down alone and viability, knock-down alone (DMSO): higher = more viable cells
# Active means: 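a gene is called essential if its knock-down-alone viability z-score drops under -3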
# Meaning of the calls: active = essential (knock-down alone); inactive = no change
# Shown is one part, drawn at random, of 794 reagents. Of all reagents, 9 (1.1%) got an active call. 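Calls rest on knock-down alone; synergy scores play no part in calls, and no gene passed the synergy cut.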 Entries without a mark were called inactive. Viability is capped at 1. Further read-outs or replicates are left out here. The record does not give: the amount of reagent, the time to read-out.
target gene,"viability robust z-score, knock-down alone","viability, knock-down alone (DMSO) (fraction of control)"
LATS1 (GeneID 9113),0.149,0.941
MAP2K4 (GeneID 6416),0.36,0.96
CDK8 (GeneID 1024),0.789,1
CALM2 (GeneID 805),-0.106,0.917
ANKK1 (GeneID 255239),-0.0596,0.922
CDK5 (GeneID 1020),-1.06,0.829
UHMK1 (GeneID 127933),0.789,1
CHD4 (GeneID 1108),-0.441,0.886
FCSK (GeneID 197258),0.789,1
PIK3CD (GeneID 5293),0.0388,0.931
MGA (GeneID 23269),-0.208,0.908
MAPK9 (GeneID 5601),0.789,1
RIPK2 (GeneID 8767),-0.466,0.884
PEAK1 (GeneID 79834),-1.22,0.814
ADCK1 (GeneID 57143),0.789,1
PRPS1L1 (GeneID 221823),0.789,1
APC (GeneID 324),0.789,1
LMBR1 (GeneID 64327),0.372,0.962
PRKCSH (GeneID 5589),0.714,0.993
MAGI1 (GeneID 9223),0.363,0.961

Laid out differently: results already given
| target gene | viability robust z-score, knock-down alone | viability, knock-down alone (DMSO) (fraction of control) |
| --- | --- | --- |
| UHMK1 (GeneID 127933) | 0.789 | 1 |
| CHD4 (GeneID 1108) | -0.441 | 0.886 |

Additional records follow.
target gene,"viability robust z-score, knock-down alone","viability, knock-down alone (DMSO) (fraction of control)"
PFKP (GeneID 5214),0.789,1
PFKM (GeneID 5213),0.452,0.969
PIM2 (GeneID 11040),0.437,0.967
FBXW7 (GeneID 55294),0.789,1
ROR2 (GeneID 4920),0.229,0.948
STK38 (GeneID 11329),-0.238,0.905
MUSK (GeneID 4593),-1.79,0.762
MAP3K21 (GeneID 84451),0.748,0.996
STK25 (GeneID 10494),-1.12,0.823
MAPK8 (GeneID 5599),0.347,0.959
PTK7 (GeneID 5754),-2.04,0.738
RIPK1 (GeneID 8737),0.587,0.981
PIK3C3 (GeneID 5289),-0.0653,0.921
TCF12 (GeneID 6938),0.6,0.983
